Assay results from article PMC4996973, “Topology and structure of an engineered human cohesin complex bound to Pds5B” (Nature Communications, 2016).
Results are given in words; binding and its absence hold for the method and conditions named. Some entries that bind do so weakly or less than the wild type. For some assays here: Tags and fused reporters may be left off the sequences shown.

Tests used:
Smc3^B-FLAG (human) = biological target: T1, Smc3^B-FLAG (human) (UniProt Q9UQE7); experiment: tandem affinity co-purification (Ni-NTA, then anti-FLAG M2 agarose); subunits co-expressed in sf9 cells; lysate in buffer A (500 mM KCl) on Ni-NTA by Scc1^10HIS, then anti-FLAG agarose by Smc3-FLAG; SDS-PAGE and silver staining; full-length tetramers further purified by glycerol density gradient centrifugation
T1 sequence: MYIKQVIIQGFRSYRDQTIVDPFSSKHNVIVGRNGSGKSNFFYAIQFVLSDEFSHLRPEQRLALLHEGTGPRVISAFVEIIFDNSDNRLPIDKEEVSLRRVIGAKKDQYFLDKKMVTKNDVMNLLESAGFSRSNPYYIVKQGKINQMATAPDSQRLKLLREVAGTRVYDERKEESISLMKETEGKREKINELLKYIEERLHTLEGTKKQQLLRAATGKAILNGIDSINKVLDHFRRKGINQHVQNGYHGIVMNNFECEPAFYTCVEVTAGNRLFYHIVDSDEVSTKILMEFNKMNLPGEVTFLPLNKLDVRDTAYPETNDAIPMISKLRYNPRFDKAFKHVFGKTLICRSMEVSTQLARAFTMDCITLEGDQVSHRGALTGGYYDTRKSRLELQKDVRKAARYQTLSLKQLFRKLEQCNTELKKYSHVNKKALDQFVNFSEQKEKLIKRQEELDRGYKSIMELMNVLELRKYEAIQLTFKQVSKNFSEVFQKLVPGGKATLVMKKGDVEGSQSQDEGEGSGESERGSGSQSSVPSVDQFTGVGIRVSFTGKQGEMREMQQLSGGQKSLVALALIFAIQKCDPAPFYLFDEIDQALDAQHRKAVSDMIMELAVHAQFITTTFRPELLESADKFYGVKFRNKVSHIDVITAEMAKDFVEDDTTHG

[1] = biological target: Smc3^FLAG (full-length) (human) (UniProt Q9UQE7); experiment: as above

B1: SA1 (protein, UniProt Q8WVM7 1-1258)
chain: MITSELPVLQDSTNETTAHSDAGSELEETEVKGKRKRGRPGRPPSTNKKPRKSPGEKSRIEAGIRGAGRGRANGHPQQNGEGEPVTLFEVVKLGKSAMQSVVDDWIESYKQDRDIALLDLINFFIQCSGCRGTVRIEMFRNMQNAEIIRKMTEEFDEDSGDYPLTMPGPQWKKFRSNFCEFIGVLIRQCQYSIIYDEYMMDTVISLLTGLSDSQVRAFRHTSTLAAMKLMTALVNVALNLSIHQDNTQRQYEAERNKMIGKRANERLELLLQKRKELQENQDEIENMMNSIFKGIFVHRYRDAIAEIRAICIEEIGVWMKMYSDAFLNDSYLKYVGWTLHDRQGEVRLKCLKALQSLYTNRELFPKLELFTNRFKDRIVSMTLDKEYDVAVEAIRLVTLILHGSEEALSNEDCENVYHLVYSAHRPVAVAAGEFLHKKLFSRHDPQAEEALAKRRGRNSPNGNLIRMLVLFFLESELHEHAAYLVDSLWESSQELLKDWECMTELLLEEPVQGEEAMSDRQESALIELMVCTIRQAAEAHPPVGRGTGKRVLTAKERKTQIDDRNKLTEHFIITLPMLLSKYSADAEKVANLLQIPQYFDLEIYSTGRMEKHLDALLKQIKFVVEKHVESDVLEACSKTYSILCSEEYTIQNRVDIARSQLIDEFVDRFNHSVEDLLQEGEEADDDDIYNVLSTLKRLTSFHNAHDLTKWDLFGNCYRLLKTGIEHGAMPEQIVVQALQCSHYSILWQLVKITDGSPSKEDLLVLRKTVKSFLAVCQQCLSNVNTPVKEQAFMLLCDLLMIFSHQLMTGGREGLQPLVFNPDTGLQSELLSFVMDHVFIDQDEENQSMEGDEEDEANKIEALHKRRNLLAAFSKLIIYDIVDMHAAADIFKHYMKYYNDYGDIIKETLSKTRQIDKIQCAKTLILSLQQLFNELVQEQGPNLDRTSAHVSGIKELARRFALTFGLDQIKTREAVATLHKDGIEFAFKYQNQKGQEYPPPNLAFLEVLSEFSSKLLRQDKKTVHSYLEKFLTEQMMERREDVWLPLISYRNSLVTGGEDDRMSVNSGSSSSKTSSVRNKKGRPPLHKKRVEDESLDNTWLNRTDTMIQTPGPLPAPQLTSTVLRENSRPMGDQIQEPESEHGSEPDFLHNPQMQISWLGQPKLEDLNRKDRTGMNYMKVRTGVRHAVRGLMEEDAEPIFEDVMMSSRSQLEDMNEEFEDTMVIDLPPSRNRRERAELRPDFFDSAAIIEDDSGFGMPMF
- binding (Smc3^B-FLAG (human)): binds
- binding [1]: binds
